No constants are given. Whether binding was seen depends on the method and setting. In cells and extracts the contact can be indirect. These calls come from enrichment with a bait or labelling near it, and not all partners need be listed. For some assays here: A no says only that the protein was not detected with the bait.
Assays:
[1] = molecular target: HfqTT (TAP-tagged Hfq) (E. coli) (UniProt P0A6X3); test: affinity purification with mass spectrometry; TAP-tag: HfqTT (or the TAP-tag peptide as control) as bait in extracts of IBhfq95Δhfq, exponential and stationary phase; IgG Sepharose, TEV cleavage, calmodulin beads; half of each sample treated with 0.1 µg/µl RNase A for 30 min at 37 °C before the calmodulin beads; an interaction called RNA dependent when the number of peptides fell by more than 30% after RNase A
[2] = molecular target: HfqTT (TAP-tagged Hfq) (E. coli) (UniProt P0A6X3); test: condition: only after RNase A treatment (0.1 µg/µl, 30 min, 37 °C); affinity purification with mass spectrometry; TAP-tag: HfqTT (or the TAP-tag peptide as control) as bait in extracts of IBhfq95Δhfq, exponential and stationary phase; IgG Sepharose, TEV cleavage, calmodulin beads; half of each sample treated with 0.1 µg/µl RNase A for 30 min at 37 °C before the calmodulin beads; an interaction called RNA dependent when the number of peptides fell by more than 30% after RNase A

By UniProt entry, the sequences of proteins in these tests, tags left out.
UniProt P0A6X3: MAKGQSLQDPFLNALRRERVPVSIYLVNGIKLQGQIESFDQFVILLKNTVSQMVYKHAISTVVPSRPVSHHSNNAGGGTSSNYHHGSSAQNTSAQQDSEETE

Binder | binding [1] | binding [2]
Poly(A)polymerase, PAP (purified) (natural protein, E. coli, UniProt P0ABF1 11-465, looked up, Poly(A) polymerase I, E. coli) KVLSREESEAEQAVARPQVTVIPREQHAISRKDISENALKVMYRLNKAGYEAWLVGGGVRDLLLGKKPKDFDVTTNATPEQVRKLFRNCRLVGRRFRLAHVMFGPEIIEVATFRGHHEGNVSDRTTSQRGQNGMLLRDNIFGSIEEDAQRRDFTINSLYYSVADFTVRDYVGGMKDLKDGVIRLIGNPETRYREDPVRMLRAVRFAAKLGMRISPETAEPIPRLATLLNDIPPARLFEESLKLLQAGYGYETYKLLCEYHLFQPLFPTITRYFTENGDSPMERIIEQVLKNTDTRIHNDMRVNPAFLFAAMFWYPLLETAQKIAQESGLTYHDAFALAMNDVLDEACRSLAIPKRLTTLTRDIWQLQLRMSRRQGKRAWKLLEHPKFRAAYDLLALRAEVERNAELQRLVKWWGEFQVSAPPDQKGMLNELDEEPSPRRRTRRPRKRAPRREGTA | binds | no binding
HUβ (DbhB) (protein, UniProt P0ACF4 1-90) MNKSQLIDKIAAGADISKAAAGRALDAIIASVTESLKEGDDVALVGFGTFAVKERAARTGRNPQTGKEITIAAAKVPSFRAGKALKDAVN | binds | –

Results, then the binder that gave them:

binding [1] | binding [2] | Binder
binds | – | Uncharacterized N-acetyltransferase YhbS (protein, UniProt P63417 1-167) MLIRVEIPIDAPGIDALLRRSFESDAEAKLVHDLREDGFLTLGLVATDDEGQVIGYVAFSPVDVQGEDLQWVGMAPLAVDEKYRGQGLARQLVYEGLDSLNEFGYAAVVTLGDPALYSRFGFELAAHHDLRCRWPGTESAFQVHRLADDALNGVTGLVEYHEHFNRF
binds | – | Soluble pyridine nucleotide transhydrogenase (protein, UniProt P27306 1-466) MPHSYDYDAIVIGSGPGGEGAAMGLVKQGARVAVIERYQNVGGGCTHWGTIPSKALRHAVSRIIEFNQNPLYSDHSRLLRSSFADILNHADNVINQQTRMRQGFYERNHCEILQGNARFVDEHTLALDCPDGSVETLTAEKFVIACGSRPYHPTDVDFTHPRIYDSDSILSMHHEPRHVLIYGAGVIGCEYASIFRGMDVKVDLINTRDRLLAFLDQEMSDSLSYHFWNSGVVIRHNEEYEKIEGCDDGVIMHLKSGKKLKADCLLYANGRTGNTDSLALQNIGLETDSRGQLKVNSMYQTAQPHVYAVGDVIGYPSLASAAYDQGRIAAQALVKGEATAHLIEDIPTGIYTIPEISSVGKTEQQLTAMKVPYEVGRAQFKHLARAQIVGMNVGTLKILFHRETKEILGIHCFGERAAEIIHIGQAIMEQKGGGNTIEYFVNTTFNYPTMAEAYRVAALNGLNRLF

Reference: publication PMC6773851, “Identification of protein-protein and ribonucleoprotein complexes containing Hfq” (Scientific Reports, 2019)
